# The supplement of paper PMC12823440, “Inhibitors supercharge kinase turnover through native proteolytic circuits” (Nature, 2025)
# The chains behind the UniProt entries cited, without tags or fusion partners. Where a name states a change or a piece, a line headed by the entry shows the natural chain unless it says otherwise.
# UniProt P23458: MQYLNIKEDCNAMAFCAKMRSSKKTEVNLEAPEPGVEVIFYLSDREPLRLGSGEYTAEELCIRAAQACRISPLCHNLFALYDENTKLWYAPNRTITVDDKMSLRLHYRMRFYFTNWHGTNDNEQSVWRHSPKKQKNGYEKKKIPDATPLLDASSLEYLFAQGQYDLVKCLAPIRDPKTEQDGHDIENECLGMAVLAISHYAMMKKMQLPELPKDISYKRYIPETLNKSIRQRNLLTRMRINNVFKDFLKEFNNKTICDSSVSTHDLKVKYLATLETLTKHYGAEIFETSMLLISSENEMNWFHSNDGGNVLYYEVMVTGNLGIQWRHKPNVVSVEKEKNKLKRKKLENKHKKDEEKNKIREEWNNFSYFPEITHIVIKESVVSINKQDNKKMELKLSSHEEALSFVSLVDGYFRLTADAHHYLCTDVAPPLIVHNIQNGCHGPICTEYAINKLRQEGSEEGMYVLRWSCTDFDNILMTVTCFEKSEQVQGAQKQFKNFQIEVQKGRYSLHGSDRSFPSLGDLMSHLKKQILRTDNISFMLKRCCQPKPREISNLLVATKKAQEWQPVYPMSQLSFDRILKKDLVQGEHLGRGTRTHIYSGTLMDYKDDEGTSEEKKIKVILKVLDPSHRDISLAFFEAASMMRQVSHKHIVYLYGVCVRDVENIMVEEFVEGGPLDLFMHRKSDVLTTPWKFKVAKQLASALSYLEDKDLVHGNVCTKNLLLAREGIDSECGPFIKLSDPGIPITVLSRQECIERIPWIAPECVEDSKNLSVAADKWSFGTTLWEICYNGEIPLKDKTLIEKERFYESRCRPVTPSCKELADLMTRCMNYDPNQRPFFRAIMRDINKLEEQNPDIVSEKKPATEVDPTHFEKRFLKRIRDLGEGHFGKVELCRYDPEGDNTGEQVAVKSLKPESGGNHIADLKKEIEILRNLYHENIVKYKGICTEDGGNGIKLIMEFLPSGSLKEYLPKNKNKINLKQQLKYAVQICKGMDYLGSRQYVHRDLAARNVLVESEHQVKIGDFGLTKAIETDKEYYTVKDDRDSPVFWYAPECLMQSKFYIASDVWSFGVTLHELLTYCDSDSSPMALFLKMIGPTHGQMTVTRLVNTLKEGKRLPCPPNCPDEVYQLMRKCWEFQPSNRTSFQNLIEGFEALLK
# Structures can show the parent of a compound that is named as a salt. Some of the results follow. Hit calls seldom repeat between salt and free forms of one compound.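 Kinases were expressed as nanoluciferase fusions in K562 cells and luminescence was read every 4 h between 2 and 18 h as percent of control, DMSO set to 100% and a positive control to 0%. A time point counts as decreased when the signal drops significantly (2 sigma). The hit call is the authors' own, does not follow from the count of time points alone, and its rule is not shown.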
# Molecular target: JAK1 (UniProt P23458)
# Assay: number of time points (of 5) at which kinase-Nluc abundance scored as decreased, DMSO-normalised (count); higher = more persistent destabilization
# Settings: K562; 2-18 h
row,SMILES,number of time points
1,CCS(=O)(=O)c1ccc(Oc2cc(O[C@@H](C)CO)cc(C(=O)Nc3ccn(C)n3)c2)cn1 (10 µM),0
2,O=C1C(=Cc2ccc(O)c(O)c2)Oc2ccccc21 (2.5 µM),0
3,CN(C)CCCNc1ccn2ncc(-c3ccc4c(c3)OCO4)c2n1 (10 µM),0
4,COc1ccc(C(=O)c2cn(C(C)C)c3ncnc(N)c23)cc1NC(=O)Nc1ccc(Cl)cc1Cl (10 µM),0
5,C[C@@H]1CN(Cc2cn[nH]c2-c2ccc(C#N)cc2)CCN1c1ccc(C(F)(F)F)cn1 (2.5 µM),0
6,O=C1c2c(O)cc(O)cc2O[C@H](c2cc(O)c(O)c(O)c2)[C@H]1O [Dihydromyricetin] (10 µM),0
7,C=CC(=O)N[C@H]1CCOC[C@H]1Nc1ncc2cc(-c3c(Cl)c(OC)cc(OC)c3Cl)ccc2n1 [Fisogatinib] (10 µM),0
8,CC(C)(O)c1cc(Nc2cc(Oc3cn(C4CC4)nc3C3CCOCC3)ccn2)ccn1 (10 µM),0
9,CC[C@H](C)[C@@H]1NC(=O)[C@@H]2CCCN2C(=O)[C@@H]2CCCN2C(=O)[C@@H]2CCCN2C(=O)[C@H](CC(C)C)NC(=O)CNC(=O)CNC(=O)[C@H](Cc2ccccc2)NC1=O [Heterophyllin B] (10 µM),0
10,COc1cc(-c2cnc(N)c(-c3ccc(NC(=O)c4cn(CC5CCOCC5)cc(-c5ccc(C)cn5)c4=O)cc3F)c2)ccc1OC[C@H]1COCCO1 [DS-1205b (free base)] (10 µM),0
11,C=CC(=O)Nc1cccc(Nc2nc(Nc3ccc(Oc4ccnc(C(=O)NC)c4)cc3)ncc2F)c1 (2.5 µM),0
12,COc1ccc(-c2cnc3c(-c4cccc5ncccc45)cnn3c2)cc1 (10 µM),0
13,Cc1c(Br)c(Br)c2c3c1nc(N1CCNCC1)n3CCC2 [SEL120-34A (monohydrochloride)] (2.5 µM),0
14,Cc1nc(Nc2ncc(C(=O)Nc3c(C)cccc3Cl)s2)cc(N2CCN(C(=O)CCCCCCC(=O)N[C@H](C(=O)N3C[C@H](O)C[C@H]3C(=O)NCc3ccc(-c4scnc4C)cc3)C(C)(C)C)CC2)n1 (2.5 µM),3
15,CC(=O)Nc1nc(C)c(-c2ccc(Cl)c(S(=O)(=O)NCCO)c2)s1 (10 µM),0
16,CC(C)n1nc(C#Cc2ccccc2)c2c(N)ncnc21 (10 µM),0
17,COc1cc(OC)c(/C=C/S(=O)(=O)Cc2ccc(OC)c(NCC(=O)O)c2)c(OC)c1 [Rigosertib (sodium)] (10 µM),1
18,CNC[C@@H](NC(=O)c1ccc(-c2nc([C@H]3CC[C@H](O)[C@@H](F)C3)cnc2N)cc1F)c1cc(F)cc(Br)c1 [Rineterkib] (10 µM),0
19,CCCC[C@H](CO)Nc1nc(NC)ncc1OC [Interferon receptor inducer-1] (10 µM),0

# Exported as tab-separated lines: two of the compounds above.
row	SMILES	number of time points
15	CC(=O)Nc1nc(C)c(-c2ccc(Cl)c(S(=O)(=O)NCCO)c2)s1 (10 µM)	0
16	CC(C)n1nc(C#Cc2ccccc2)c2c(N)ncnc21 (10 µM)	0

# The results go on.

row,SMILES,number of time points
1,CC(C)=C/C=C1\O[C@@H]2CC(C)=CC(=O)[C@@H]2[C@]1(C)O [Bisabolangelone] (10 µM),0
2,CCCCCC1CC1CC1CC1CCCCCCCC(=O)O (stereo not drawn) (10 µM),0
3,CNC(=O)c1c(C)oc2cc(Oc3ncnc4cc(OC)c(OC)cc34)ccc12 [Fruquintinib] (10 µM),0
4,CC(C)(C)S(=O)(=O)c1cc2c(Nc3ccc4scnc4c3)ccnc2cc1OCCOCCOCCOCCOCC(=O)Nc1cccc2c1CN(C1CCC(=O)NC1=O)C2=O (stereo not drawn) [PROTAC RIPK degrader-6] (10 µM),0
5,C[C@]1(O)C[C@@](N)(c2ccc(-c3nc4n(c3-c3ccccc3)COc3ccncc3-4)cc2)C1 [TAS-117 (hydrochloride)] (10 µM),0
6,CNC(=O)c1nnc(NC(=O)C2CC2)cc1Nc1cccc(-c2ncn(C)n2)c1OC [Deucravacitinib] (10 µM),0
7,O=c1sn(-c2cccc3ccccc23)c(=O)n1Cc1ccccc1 [Tideglusib] (10 µM),0
8,C=CC(=O)Nc1cccc(Oc2nc(Nc3ccc(N4CCN(C)CC4)cc3)ncc2Cl)c1 (2.5 µM),0
9,CNC(=O)c1ccc(-c2cnc3ncc(Cc4ccc5ncccc5c4)n3n2)cc1F [Capmatinib] (10 µM),0
10,CN(C)C(=O)c1cc2cnc(Nc3ccc(NC(=O)C4(C(=O)Nc5ccc(F)cc5)CC4)cc3)nc2n1C1CCCC1 (2 µM),0
11,Cn1cc(C2=C(c3c4n(c5ccccc35)CCC(CN)C4)C(=O)NC2=O)c2ccccc21 (stereo not drawn) [Bisindolylmaleimide X (hydrochloride)] (2.5 µM),0
12,COc1cc(/C=C/c2ccc(NC(=O)/C=C/c3cc(OC)c(OC)c(OC)c3)cc2)cc(OC)c1 (2.5 µM),0
13,O=C(N=c1sccn1Cc1ccccc1)c1c[nH]c2ncccc12 (10 µM),0
14,C=CCN(/C=C1/C(=O)O[C@H](COC)[C@@]2(C)C1=C(O)C(=O)C1=C2[C@H](OC(C)=O)C[C@]2(C)C(=O)CC[C@@H]12)CC=C [Sonolisib] (2.5 µM),1
15,CC(C)(C)c1ccc(C(=O)Nc2cn3cc(-n4ccnc4)ccc3n2)cc1 (10 µM),0
16,C[C@@]12CCc3occc3[C@H]1CC[C@@]13C[C@@H](CC[C@H]12)[C@@](O)(CO)C3 [Cafestol] (10 µM),0
17,O=S(=O)(c1cccc2c(Cl)cccc12)N1CCCNCC1 (10 µM),0
18,Oc1ccc2ccccc2c1SSc1c(O)ccc2ccccc12 (10 µM),0
19,COc1cc(Nc2nc3ccccc3nc2NS(=O)(=O)c2ccc(NC(=O)c3ccc(C)c(OC)c3)cc2)cc(OC)c1 (10 µM),0
